# In PubChem BioAssay (NCATS):
# Amino acid sequences for entries named in this document (tags omitted). A change or cut given only in a name is not applied to a line headed by its entry.
# UniProt Q9Y468: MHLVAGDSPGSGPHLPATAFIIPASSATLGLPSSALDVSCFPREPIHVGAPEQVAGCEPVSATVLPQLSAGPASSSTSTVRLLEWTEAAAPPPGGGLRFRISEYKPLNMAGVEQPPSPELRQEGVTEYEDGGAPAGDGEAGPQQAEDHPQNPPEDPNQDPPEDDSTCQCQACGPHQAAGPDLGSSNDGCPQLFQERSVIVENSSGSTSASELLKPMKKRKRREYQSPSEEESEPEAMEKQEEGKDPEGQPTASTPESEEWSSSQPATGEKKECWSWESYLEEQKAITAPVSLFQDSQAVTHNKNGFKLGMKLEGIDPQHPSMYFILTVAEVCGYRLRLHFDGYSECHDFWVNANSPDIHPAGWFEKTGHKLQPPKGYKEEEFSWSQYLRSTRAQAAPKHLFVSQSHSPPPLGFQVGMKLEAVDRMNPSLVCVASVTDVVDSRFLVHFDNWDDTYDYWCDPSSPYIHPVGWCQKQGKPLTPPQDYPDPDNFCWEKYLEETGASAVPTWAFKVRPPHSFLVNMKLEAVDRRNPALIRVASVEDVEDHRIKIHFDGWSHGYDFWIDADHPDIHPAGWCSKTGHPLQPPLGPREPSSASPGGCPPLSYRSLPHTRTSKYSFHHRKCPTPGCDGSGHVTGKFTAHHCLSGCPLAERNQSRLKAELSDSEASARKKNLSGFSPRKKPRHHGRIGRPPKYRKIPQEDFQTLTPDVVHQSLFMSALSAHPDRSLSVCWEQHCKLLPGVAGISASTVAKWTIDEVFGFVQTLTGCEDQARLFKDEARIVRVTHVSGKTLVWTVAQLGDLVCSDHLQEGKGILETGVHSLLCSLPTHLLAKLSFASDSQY
# The inconclusive results got no clear call from the source; some entries with a clear call stand among them for comparison. A potency beside an inconclusive call is a rough fit, not a confirmed value. Activity calls are given as the source filed them. Calls come from the whole dose curve; as a rule, active = well fitted inhibition curve with a large enough effect; inconclusive = small, poorly fitted or top-dose-only effect; inactive = flat fitted curve, though single readings scatter.
# Target: Lethal(3)malignant brain tumor-like protein 1 (Homo sapiens) (UniProt Q9Y468)
# Assay: qHTS Assay for the Inhibitors of L3MBTL1: Hit Validation (AID 540279); note: nearly all actives have a fitted effect of over 70% in size
# Details: L3MBTL1 methyl-lysine binding inhibition, biochemical qHTS
# Description: The histone code is comprised of many post-translational modifications that occur mainly in histone tail peptides. The identity and location of these marks are read by a variety of histone binding proteins that are emerging as important regulators of cellular differentiation and development and are increasingly being implicated in numerous disease states. Small molecule probes that disrupt the interaction between histone binding proteins and chromatin would enable a systematic chemical biology study of proteins that read the histone code and could potentially reveal new targets for drug discovery. However, no such small molecules are known. This dearth of quality molecular probes can largely be attributed to the novelty of the target class and the lack of screening assays. This proposal details the development of the first high-throughput screening assay for the discovery of inhibitors of methyl-lysine binding proteins and how it can be used to initiate a full-scale discovery effort for antagonists of histone binding proteins. Specifically, this work focuses on an AlphaScreen(tm)-based HTS assay for Malignant Brain Tumor (MBT) domain-containing proteins, which bind to the lower methylation states of lysine residues present in histone tail peptides.
# To each well, 2 uL of L3MBTL1 protein (final 50 nM) and 1 uL biotinylated histone peptide monomethylated at Lys9 [b-AHA-H3(1-15)K9me1] (final 75 nM) was added using a nanoliter dispenser. Formation of a protein-peptide complex proceeded at room temperature for 30 min. A Kalypsys pin-tool was employed to transfer 23 nL of library compound solution in DMSO to each well. Cefsulodin, found in a pilot screen of the LOPAC library to be a weak inhibitor of L3MBTL1 binding, was used as an intraplate control with a 16-point titration in duplicate. Following a 30 min incubation of the protein-peptide complex with compounds at room temperature, a mixture of 40 ug/mL each streptavidin-coated donor and nickel chelate acceptor AlphaScreen beads (final 10 ug/mL) was added in a 1 uL dispense for a final volume of 4 uL. Plates were incubated, protected from the light for 30 min at room temperature. Microplates were then be read on an EnVision multilabel plate reader using the 1,536 plate HTS AlphaScreen aperture (excitation time 80 ms, measurement time 240 ms).
# Potency is the fitted concentration of half-maximal effect.
row,SMILES,Potency
1,O=C(O)CCc1ccc(-c2cccs2)n1CCC(=O)O,active: 16.8 µM
2,CSCCC(NS(=O)(=O)c1ccc(C)c(C(=O)O)c1)C(=O)O (stereo unspecified),"inconclusive: 29.9 µM [inhibitor, single point]"
3,O=C(Nn1cc(C(=O)Nc2ccccc2F)c2ccccc2c1=O)c1cnccn1,"inconclusive: 37.7 µM [inhibitor, single point]"
4,COc1ccc2nc(-n3c(O)c(C4=c5ccccc5=NC4=O)[nH]c3=S)sc2c1,active: 3.36 µM
5,O=C(O)/C=C/c1nc(-c2ccccc2)n2ccccc12,"inconclusive: 23.8 µM [inhibitor, single point]"
6,c1ccc2c(c1)OCC(c1nn3c(Cn4nnc5ccccc54)nnc3s1)O2 (stereo unspecified),"inconclusive: 26.7 µM [inhibitor, single point]"
7,CC(=O)c1c(COC(=O)c2ccncc2)nc2ccccc2[n+]1[O-],"inconclusive: 26.7 µM [inhibitor, single point]"
8,O=C(CSc1cccc2cccnc12)Nc1ccc(S(=O)(=O)N2CCOCC2)cc1,"inconclusive: 23.8 µM [inhibitor, single point]"
9,O=c1cc(-c2ccccc2Cl)c2c([nH]1)CCC2,"inconclusive: 21.2 µM [inhibitor, single point]"
10,CCNc1nc(NCC)n2c(SCC(=O)Nc3ccc(F)cc3)nnc2n1,"inconclusive: 26.7 µM [inhibitor, single point]"
11,COc1ccc(C2CC(=O)Nc3ccccc3S2(=O)=O)cc1OC (stereo unspecified),"inconclusive: 26.7 µM [inhibitor, single point]"
12,c1coc(-c2nc3ccccc3nc2-c2ccco2)c1,"inconclusive: 26.7 µM [inhibitor, single point]"
13,CNc1nc(C(=O)O)nc(N2CCOCC2)n1,"inconclusive: 23.8 µM [inhibitor, partial curve, poor fit]"
14,COCCN(C(=O)COC(=O)c1cc2c(s1)CCC2)c1c(N)n(Cc2ccccc2)c(=O)[nH]c1=O,active: 0.844 µM
15,O=C(Nc1ccc(S(=O)(=O)Nc2ncccn2)cc1)c1ccc2ncsc2c1,"inconclusive: 26.7 µM [inhibitor, single point]"
16,Cc1cc(C)n(-c2nnc3c4ccccc4n(C)c3n2)n1,"inconclusive: 26.7 µM [inhibitor, single point]"

# As entered above.
# Potency with `CSCCC(NS(=O)(=O)c1ccc(C)c(C(=O)O)c1)C(=O)O` (stereo unspecified) reads inconclusive: 29.9 µM [inhibitor, single point]
# Potency with `O=C(O)CCc1ccc(-c2cccs2)n1CCC(=O)O` reads active: 16.8 µM

# Remaining list, next part:

row,SMILES,Potency
1,COc1cnc(-c2ccccn2)[nH]c1=O,active: 21.2 µM
2,O=C(O)CN1C(=O)/C(=C/c2ccc(SCc3ccccc3)o2)SC1=S,active: 4.74 µM
3,CCCN(C(=O)c1cc2c(s1)CCC2)c1c(N)n(Cc2ccccc2)c(=O)[nH]c1=O,active: 5.32 µM
4,Cc1ccc(N=C2NC(=O)S/C2=C\c2ccco2)cc1,active: 11.9 µM
5,Cc1nnc(N2C(=O)c3oc4ccccc4c(=O)c3C2c2ccco2)s1 (stereo unspecified),"inconclusive: 26.7 µM [inhibitor, partial curve, poor fit]"
6,Cc1nnc(NC(=O)C2CCN(S(=O)(=O)c3ccc(F)c(Cl)c3)CC2)o1,"inconclusive: 26.7 µM [inhibitor, single point]"
7,COC(=O)/C(C#N)=C/c1ccc(OC(=O)c2ccccn2)cc1,"inconclusive: 21.2 µM [inhibitor, single point]"
8,CC(=O)c1ccc(S(=O)(=O)Nc2c(C)nn(C)c2C)cc1,"inconclusive: 26.7 µM [inhibitor, single point]"
9,COc1ccc(Sc2ccc(/C=C3\C(=O)NN(c4ccccc4)C3=O)o2)cc1,active: 21.2 µM
10,O=C(CSc1nnc(C2COc3ccccc3O2)o1)Nc1nccs1 (stereo unspecified),"inconclusive: 21.2 µM [inhibitor, single point]"
11,N#Cc1nc(COc2ccccc2Cl)oc1N1CCCC1,"inconclusive: 6.7 µM [inhibitor, partial curve, poor fit]"
12,O=C(CSc1nc(=O)n2cc(Cl)ccc2n1)Nc1cccc2ccccc12,"inconclusive: 26.7 µM [inhibitor, single point]"
13,O=C(COC(=O)C1CCN(S(=O)(=O)c2cccs2)CC1)c1cc2ccccc2o1,"inconclusive: 26.7 µM [inhibitor, single point]"
14,O=c1cc(C(F)(F)F)nc(-n2[nH]c3c(c2=O)CCCC3)[nH]1,"inconclusive: 33.6 µM [inhibitor, single point]"
15,O=C(Oc1ccccc1F)c1ccc2c(=O)n3c(nc2c1)CCC3,"inconclusive: 23.8 µM [inhibitor, single point]"
